Test results: PubChem BioAssay AID540276 (National Center for Advancing Translational Sciences (NCATS), 2011)
Among all 300,000 compounds or so, about 5,400 (1.8%) were called active. The inconclusive results got no clear call from the source; some entries with a clear call stand among them for comparison. Calls follow the shape of the full dose curve; tested in HEK293 cells. Potencies of inconclusive entries are doubtful fits and often do not repeat.
% is scaled to controls: 0 for no effect and ±100 for the full control effect; potency is read from the fitted curve at half-maximal effect.

Experiment: qHTS for inhibitors of binding or entry into cells for Marburg Virus
Settings: Marburg virus pseudotyped entry inhibition, cell reporter; activity change, negative = inhibition: at 37.8 µM (top of the series) unless noted
With O=C1c2[nH]nc(-c3ccccc3O)c2C(c2cccc(Cl)c2)N1CC1CCCO1 (stereo not given) the Potency was inconclusive: 35.5 µM [inhibitor, single point]. For O=C(Nc1ccccc1)Nc1cccc2nsnc12, the Potency was inconclusive: 1.26 µM [activator, single point]. With O=C(NCCC1=CCCCC1)Nc1ccc2nsnc2c1 the Potency was inconclusive: 35.5 µM [inhibitor, partial curve, poor fit]. In the case of Cn1nnc2cc(NC(=O)NCc3ccc4c(c3)OCO4)ccc21, the Potency is reported as inconclusive: 16.4 µM [activator, single point]. In the case of CCn1cc(C(=O)N2CCN(c3ccccc3OC)CC2)c(=O)c2cc(S(=O)(=O)N3CCCCC3)ccc21, the “activity change, negative = inhibition” value is reported as inactive: 8.56% [at 46.1 µM]. In the case of CCn1c(=NC(=O)CSC(C)=O)sc2cc(F)ccc21, the Potency is reported as inconclusive: 2.51 µM [activator, partial curve, poor fit]. In the case of COc1ccc(C)cc1NC(=O)CN1CCN(c2ccc(F)cc2)CC1, the Potency is reported as inconclusive: 1.78 µM [inhibitor, full curve]. With Cc1ccccc1Oc1ccc(NC(=O)C2CC=CCC2C(=O)O)cc1 (stereo not given) the Potency was inconclusive: 20.6 µM [activator, partial curve, poor fit]. For O=C1Nc2ccccc2/C1=C/c1cccnc1, the Potency was inconclusive: 32.6 µM [inhibitor, single point]. For COc1ccc(-n2ccnc2SCC(=O)Nc2ccccc2)cc1, the “activity change, negative = inhibition” value was inactive: 15.6%. With COc1ccc(CNC(=O)[C@H](C)[C@@H]2C[C@@]2(C)[C@@H](NC(=O)OCc2ccccc2)c2ccccc2)cc1OC the Potency was inconclusive: 16.4 µM [inhibitor, single point]. For CC(=O)N[C@H]1C[C@@H]1c1ccccc1, the Potency was inconclusive: 2.82 µM [inhibitor, partial curve, poor fit]. In the case of CCOC(=O)c1[nH]c(C)c(C(=O)Nc2ccccc2C)c1C, the “activity change, negative = inhibition” value is reported as inactive: -2.62%. In the case of CCCCN1C[C@H](CSC)[C@@H](CC(=O)Nc2ccc(OC)cc2)C1=O, the Potency is reported as inconclusive: 0.0014 µM [inhibitor, full curve, poor fit]. With CCOC(=O)N1CCN(c2ncnc3c2[nH]c2ccc(OC)cc23)CC1 the Potency was active: 10 µM. For CCOC(=O)c1ccc(N2C(=O)c3n[nH]c(C)c3C2c2ccc(OC)c(OC)c2)cc1 (stereo not given), the “activity change, negative = inhibition” value was inactive: -20.3%. In the case of O=C(CCCC(=O)Nc1cccc(Br)c1)N/N=C/c1cc([N+](=O)[O-])ccc1O, the Potency is reported as inconclusive: 11.2 µM [inhibitor, single point]. In the case of CCOc1ccc(-n2c(=O)c3c4c(sc3n(Cc3cccc(Cl)c3)c2=O)CCCC4)cc1, the “activity change, negative = inhibition” value is reported as inactive: 19.1% [at 46.1 µM]. For CCN(C(=O)c1cnc(NC(C)C)cc1C(F)(F)F)c1ccc(Cl)cc1Cl, the Potency was inconclusive: 35.5 µM [inhibitor, single point]. For CCOc1cc2c(cc1OCC)C(C(=O)O)C(c1ccc(OC)c(O)c1)N(C)C2=O (stereo not given), the Potency was inconclusive: 6.31 µM [activator, single point]. For O=C(COC(=O)Cc1c[nH]c2ccccc12)Nc1c(Cl)cccc1C(F)(F)F, the “activity change, negative = inhibition” value was inactive: 8.14% [at 46.1 µM]. With Cc1ccc(Cl)cc1N1CCN(C(=O)CN(C2CCCCC2)S(C)(=O)=O)CC1 the Potency was inconclusive: 14.1 µM [inhibitor, partial curve, poor fit]. For COc1ccc(C2=CC(c3ccc(C)cc3)n3nnnc3N2)cc1 (stereo not given), the “activity change, negative = inhibition” value was inactive: 22.2%. With CNS(=O)(=O)c1cnccc1N1CCN(C)CC1 the “activity change, negative = inhibition” value was inactive: 0.286%. For CCCSC1=C(C#N)[C@H](c2ccc(OC)cc2)C2=C(CC(C)(C)CC2=O)N1, the “activity change, negative = inhibition” value was inactive: -10%. For CC(C)C1N(C(=O)N2CCOCC2)CCN1S(=O)(=O)c1ccccc1 (stereo not given), the “activity change, negative = inhibition” value was inactive: 3.85% [at 46.1 µM]. With O=C(NCCOc1ccc(F)cc1)C1CCC(=O)N(CCN2CCOCC2)C1 (stereo not given) the “activity change, negative = inhibition” value was inactive: -0.228%. For Cc1ccc(OCC(=O)NCCc2c[nH]c3ccccc23)cc1, the Potency was inconclusive: 35.5 µM [inhibitor, single point]. In the case of CSc1nc2ccc(S(=O)(=O)NC3CCCCC3)cc2s1, the Potency is reported as inconclusive: 3.55 µM [inhibitor, full curve, poor fit]. With COc1ccc(C(=O)CSc2nc3cccnc3n2C)cc1 the Potency was inconclusive: 1.26 µM [activator, single point]. For CC1(C)CC(NC(=O)c2ccc(-c3ccc([N+](=O)[O-])cc3)o2)CC(C)(C)N1, the “activity change, negative = inhibition” value was inactive: -22.5% [at 46.1 µM]. With CCS(=O)(=O)c1c(Nc2ccc(F)c(Cl)c2)sc(C(=O)c2ccccc2)c1N the “activity change, negative = inhibition” value was inactive: -15.2% [at 46.1 µM]. In the case of CCCc1n[nH]c2c1C(=O)CC(C)(C)C2, the “activity change, negative = inhibition” value is reported as inactive: 2.04% [at 46.1 µM]. In the case of Cc1ccc(C(=O)NS(=O)(=O)c2ccc(C)cc2)cc1, the “activity change, negative = inhibition” value is reported as inactive: 3.21%. With Cc1oc(-c2cccc(Cl)c2)nc1CN1CCC(C(=O)NCc2ccco2)CC1 the Potency was inconclusive: 23.1 µM [inhibitor, single point]. For COc1ccc(CCN2C(=O)CC(NCCc3ccc(S(N)(=O)=O)cc3)C2=O)cc1OC (stereo not given), the Potency was inconclusive: 0.231 µM [inhibitor, single point]. For Cc1c(Cl)cccc1N1CC(c2nc3ccccc3n2Cc2ccccc2F)CC1=O (stereo not given), the Potency was inconclusive: 12.6 µM [inhibitor, partial curve, poor fit]. In the case of CC(=O)N1c2c(ccc3ccccc23)C(C)CC12CCCCC2 (stereo not given), the Potency is reported as inconclusive: 35.5 µM [inhibitor, single point]. With CN(CC1CCCO1)S(=O)(=O)c1ccc(C(=O)NCc2ccccc2)cc1 (stereo not given) the Potency was inconclusive: 1.26 µM [inhibitor, partial curve, poor fit]. In the case of Oc1ccccc1-c1nc(/C=C/c2ccc(F)cc2)no1, the Potency is reported as inconclusive: 8.91 µM [activator, partial curve]. For Cc1cccc(N2CCN(C(=O)Nc3ccc(F)cc3)CC2C)c1 (stereo not given), the “activity change, negative = inhibition” value was inactive: 4.23% [at 46.1 µM]. In the case of CCN(CC(=O)Nc1cccc(OC)c1)c1ncnc2sc(C)c(C)c12, the Potency is reported as inconclusive: 35.5 µM [inhibitor, partial curve, poor fit]. In the case of COC(=O)c1ccc(CSc2nc3ccccc3o2)cc1, the Potency is reported as inconclusive: 6.51 µM [activator, single point]. In the case of COc1ccccc1NC(=O)CN1C(=O)C(c2ccc(F)cc2)=NC1(C)C, the Potency is reported as inconclusive: 6.31 µM [activator, single point]. For COc1ccccc1NS(=O)(=O)c1cc(N/C(=N\S(=O)(=O)c2ccccc2)c2ccc(F)cc2)ccc1Cl, the Potency was inconclusive: 17.8 µM [inhibitor, single point].
